For two molecules, binding results are on record in publication doi:10.1101/2022.12.30.522300 (bioRxiv, 2022).

No constants are given. Whether binding was seen depends on the method and setting. Binding seen in cells or lysates may run through a third protein. Some results given as binding are weak or reduced against the parent protein; the word gives no strength. For some assays here: Sequences can lack the tags named with a protein.

In one experiment the target is T1, Flag-RBM17 (human) (UniProt Q96I25).
T1 sequence: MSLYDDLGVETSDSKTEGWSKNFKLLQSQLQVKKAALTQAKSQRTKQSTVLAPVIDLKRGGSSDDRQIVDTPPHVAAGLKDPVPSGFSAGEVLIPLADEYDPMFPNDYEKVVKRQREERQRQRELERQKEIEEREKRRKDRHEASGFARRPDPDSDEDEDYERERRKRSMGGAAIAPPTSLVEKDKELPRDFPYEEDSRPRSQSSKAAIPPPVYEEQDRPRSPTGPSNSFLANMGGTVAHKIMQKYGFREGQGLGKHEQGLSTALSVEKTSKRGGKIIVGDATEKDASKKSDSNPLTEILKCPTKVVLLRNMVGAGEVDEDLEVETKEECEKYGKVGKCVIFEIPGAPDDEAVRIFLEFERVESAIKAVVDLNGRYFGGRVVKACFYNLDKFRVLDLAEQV
Nature of the experiment: co-IP.

Experiment [1] deals with T2, endogenous SAP30BP (human (endogenous in HeLa)) (UniProt Q9UHR5).
T2 sequence: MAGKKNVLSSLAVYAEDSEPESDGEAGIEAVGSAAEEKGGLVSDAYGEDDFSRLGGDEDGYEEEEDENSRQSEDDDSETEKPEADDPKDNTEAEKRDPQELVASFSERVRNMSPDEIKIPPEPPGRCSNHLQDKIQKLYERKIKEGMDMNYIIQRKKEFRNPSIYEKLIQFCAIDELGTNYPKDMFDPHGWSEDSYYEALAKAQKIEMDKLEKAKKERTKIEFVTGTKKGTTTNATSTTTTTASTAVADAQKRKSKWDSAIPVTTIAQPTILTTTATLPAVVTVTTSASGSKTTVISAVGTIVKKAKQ
Nature of the experiment: co-IP.

B1: Myc-SAP30 (protein, UniProt O75446 1-220)
chain: MNGFTPDEMSRGGDAAAAVAAVVAAAAAAASAGNGTGAGTGAEVPGAGAVSAAGPPGAAGPGPGQLCCLREDGERCGRAAGNASFSKRIQKSISQKKVKIELDKSARHLYICDYHKNLIQSVRNRRKRKGSDDDGGDSPVQDIDTPEVDLYQLQVNTLRRYKRHFKLPTRPGLNKAQLVEIVGCHFRSIPVNEKDTLTYFIYSVKNDKNKSDLKVDSGVH
B1: the binding result in the experiment with Flag-RBM17 (human) was “no binding”.

B2: endogenous RBM17 (protein, UniProt Q96I25 1-401)
chain: MSLYDDLGVETSDSKTEGWSKNFKLLQSQLQVKKAALTQAKSQRTKQSTVLAPVIDLKRGGSSDDRQIVDTPPHVAAGLKDPVPSGFSAGEVLIPLADEYDPMFPNDYEKVVKRQREERQRQRELERQKEIEEREKRRKDRHEASGFARRPDPDSDEDEDYERERRKRSMGGAAIAPPTSLVEKDKELPRDFPYEEDSRPRSQSSKAAIPPPVYEEQDRPRSPTGPSNSFLANMGGTVAHKIMQKYGFREGQGLGKHEQGLSTALSVEKTSKRGGKIIVGDATEKDASKKSDSNPLTEILKCPTKVVLLRNMVGAGEVDEDLEVETKEECEKYGKVGKCVIFEIPGAPDDEAVRIFLEFERVESAIKAVVDLNGRYFGGRVVKACFYNLDKFRVLDLAEQV
For B2, the binding entry in experiment [1] is listed as “binds”.
